Reference: the supplement of paper PMC11546906
Counter-ions that a name gives are not always drawn. The list shows a part of the results. This data set is noisy: repeats of one test often differ as much as different tests do.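 FDA-approved drugs were each paired with colistin at one-eighth its MIC and screened against a multidrug-resistant, mcr-1-positive clinical E. coli isolate, with OD600 read after 24 h. Drug-free bacteria served as growth control, plain broth as blank. Combinations were active if OD600 dropped below 0.2.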

System: Escherichia coli 42 (mcr-1-positive clinical isolate)
Assay: OD600 after 24 h growth with compound plus colistin (absorbance units (OD600)); higher = more bacterial growth (less inhibition)
Settings: first compound 25 µM; colistin concentration 0.5 ug/mL; incubation time 24 h; 37 °C

| SMILES | OD600 |
| --- | --- |
| COc1ccc([C@@H]2Sc3ccccc3N(CCN(C)C)C(=O)[C@@H]2OC(C)=O)cc1 [Diltiazem hydrochloride] + CCC(C)CCCC(=O)N[C@@H](CCN)C(=O)N[C@H](C(=O)N[C@@H](CCN)C(=O)N[C@H]1CCNC(=O)[C@H]([C@@H](C)O)NC(=O)[C@H](CCN)NC(=O)[C@H](CCN)NC(=O)[C@H](CC(C)C)NC(=O)[C@@H](CC(C)C)NC(=O)[C@H](CCN)NC1=O)[C@@H](C)O [colistin] | inactive: 0.935 |
| COC(=O)[C@H](c1ccccc1Cl)N1CCc2sccc2C1 [Clopidogrel] + CCC(C)CCCC(=O)N[C@@H](CCN)C(=O)N[C@H](C(=O)N[C@@H](CCN)C(=O)N[C@H]1CCNC(=O)[C@H]([C@@H](C)O)NC(=O)[C@H](CCN)NC(=O)[C@H](CCN)NC(=O)[C@H](CC(C)C)NC(=O)[C@@H](CC(C)C)NC(=O)[C@H](CCN)NC1=O)[C@@H](C)O [colistin] | inactive: 0.999 |
| CC(C)C(=O)OCC(=O)[C@@]12O[C@H](C3CCCCC3)O[C@@H]1C[C@H]1[C@@H]3CCC4=CC(=O)C=C[C@]4(C)[C@H]3[C@@H](O)C[C@@]12C [Ciclesonide] + CCC(C)CCCC(=O)N[C@@H](CCN)C(=O)N[C@H](C(=O)N[C@@H](CCN)C(=O)N[C@H]1CCNC(=O)[C@H]([C@@H](C)O)NC(=O)[C@H](CCN)NC(=O)[C@H](CCN)NC(=O)[C@H](CC(C)C)NC(=O)[C@@H](CC(C)C)NC(=O)[C@H](CCN)NC1=O)[C@@H](C)O [colistin] | inactive: 0.966 |
| C[C@@](Cc1ccc(O)c(O)c1)(NN)C(=O)O [Carbidopa monohydrate] + CCC(C)CCCC(=O)N[C@@H](CCN)C(=O)N[C@H](C(=O)N[C@@H](CCN)C(=O)N[C@H]1CCNC(=O)[C@H]([C@@H](C)O)NC(=O)[C@H](CCN)NC(=O)[C@H](CCN)NC(=O)[C@H](CC(C)C)NC(=O)[C@@H](CC(C)C)NC(=O)[C@H](CCN)NC1=O)[C@@H](C)O [colistin] | inactive: 0.916 |
| C=CC1=C(C(=O)O)N2C(=O)[C@@H](NC(=O)/C(=N\OCC(=O)O)c3csc(N)n3)[C@H]2SC1 [Cefixime] + CCC(C)CCCC(=O)N[C@@H](CCN)C(=O)N[C@H](C(=O)N[C@@H](CCN)C(=O)N[C@H]1CCNC(=O)[C@H]([C@@H](C)O)NC(=O)[C@H](CCN)NC(=O)[C@H](CCN)NC(=O)[C@H](CC(C)C)NC(=O)[C@@H](CC(C)C)NC(=O)[C@H](CCN)NC1=O)[C@@H](C)O [colistin] | active: 0.037 |
| NC(=O)c1cn(Cc2c(F)cccc2F)nn1 [Rufinamide] + CCC(C)CCCC(=O)N[C@@H](CCN)C(=O)N[C@H](C(=O)N[C@@H](CCN)C(=O)N[C@H]1CCNC(=O)[C@H]([C@@H](C)O)NC(=O)[C@H](CCN)NC(=O)[C@H](CCN)NC(=O)[C@H](CC(C)C)NC(=O)[C@@H](CC(C)C)NC(=O)[C@H](CCN)NC1=O)[C@@H](C)O [colistin] | inactive: 0.936 |
| CN(C)CCOC(c1ccccc1)c1ccccc1.Cn1c(=O)c2[nH]c(Cl)nc2n(C)c1=O [Dimenhydrinate] + CCC(C)CCCC(=O)N[C@@H](CCN)C(=O)N[C@H](C(=O)N[C@@H](CCN)C(=O)N[C@H]1CCNC(=O)[C@H]([C@@H](C)O)NC(=O)[C@H](CCN)NC(=O)[C@H](CCN)NC(=O)[C@H](CC(C)C)NC(=O)[C@@H](CC(C)C)NC(=O)[C@H](CCN)NC1=O)[C@@H](C)O [colistin] | inactive: 0.942 |
| C[C@](N)(Cc1ccc(O)c(O)c1)C(=O)O [Methyldopa] + CCC(C)CCCC(=O)N[C@@H](CCN)C(=O)N[C@H](C(=O)N[C@@H](CCN)C(=O)N[C@H]1CCNC(=O)[C@H]([C@@H](C)O)NC(=O)[C@H](CCN)NC(=O)[C@H](CCN)NC(=O)[C@H](CC(C)C)NC(=O)[C@@H](CC(C)C)NC(=O)[C@H](CCN)NC1=O)[C@@H](C)O [colistin] | inactive: 0.985 |
| CC(C)C(=O)Nc1ccc([N+](=O)[O-])c(C(F)(F)F)c1 [Flutamide] + CCC(C)CCCC(=O)N[C@@H](CCN)C(=O)N[C@H](C(=O)N[C@@H](CCN)C(=O)N[C@H]1CCNC(=O)[C@H]([C@@H](C)O)NC(=O)[C@H](CCN)NC(=O)[C@H](CCN)NC(=O)[C@H](CC(C)C)NC(=O)[C@@H](CC(C)C)NC(=O)[C@H](CCN)NC1=O)[C@@H](C)O [colistin] | inactive: 0.901 |
| CC(=O)OCC[N+](C)(C)C [Acetylcholine chloride] + CCC(C)CCCC(=O)N[C@@H](CCN)C(=O)N[C@H](C(=O)N[C@@H](CCN)C(=O)N[C@H]1CCNC(=O)[C@H]([C@@H](C)O)NC(=O)[C@H](CCN)NC(=O)[C@H](CCN)NC(=O)[C@H](CC(C)C)NC(=O)[C@@H](CC(C)C)NC(=O)[C@H](CCN)NC1=O)[C@@H](C)O [colistin] | inactive: 1.14 |
| CC(C)CN(C[C@@H](O)[C@H](Cc1ccccc1)NC(=O)O[C@H]1CO[C@H]2OCC[C@H]21)S(=O)(=O)c1ccc(N)cc1 [Darunavir Ethanolate] + CCC(C)CCCC(=O)N[C@@H](CCN)C(=O)N[C@H](C(=O)N[C@@H](CCN)C(=O)N[C@H]1CCNC(=O)[C@H]([C@@H](C)O)NC(=O)[C@H](CCN)NC(=O)[C@H](CCN)NC(=O)[C@H](CC(C)C)NC(=O)[C@@H](CC(C)C)NC(=O)[C@H](CCN)NC1=O)[C@@H](C)O [colistin] | inactive: 0.815 |
| Nc1ccc(S(=O)(=O)Nc2ncccn2)cc1 [Sulfadiazine] + CCC(C)CCCC(=O)N[C@@H](CCN)C(=O)N[C@H](C(=O)N[C@@H](CCN)C(=O)N[C@H]1CCNC(=O)[C@H]([C@@H](C)O)NC(=O)[C@H](CCN)NC(=O)[C@H](CCN)NC(=O)[C@H](CC(C)C)NC(=O)[C@@H](CC(C)C)NC(=O)[C@H](CCN)NC1=O)[C@@H](C)O [colistin] | inactive: 1.06 |
| O=C1CCc2cc(OCCCCc3nnnn3C3CCCCC3)ccc2N1 [Cilostazol] + CCC(C)CCCC(=O)N[C@@H](CCN)C(=O)N[C@H](C(=O)N[C@@H](CCN)C(=O)N[C@H]1CCNC(=O)[C@H]([C@@H](C)O)NC(=O)[C@H](CCN)NC(=O)[C@H](CCN)NC(=O)[C@H](CC(C)C)NC(=O)[C@@H](CC(C)C)NC(=O)[C@H](CCN)NC1=O)[C@@H](C)O [colistin] | inactive: 1.09 |
| Cc1c(S(=O)(=O)O)oc2c1C(=O)C(=O)c1c-2ccc2c1CCCC2(C)C [Tanshinone IIA sulfonate sodium] + CCC(C)CCCC(=O)N[C@@H](CCN)C(=O)N[C@H](C(=O)N[C@@H](CCN)C(=O)N[C@H]1CCNC(=O)[C@H]([C@@H](C)O)NC(=O)[C@H](CCN)NC(=O)[C@H](CCN)NC(=O)[C@H](CC(C)C)NC(=O)[C@@H](CC(C)C)NC(=O)[C@H](CCN)NC1=O)[C@@H](C)O [colistin] | inactive: 1.07 |
| CCc1nc(N)nc(N)c1-c1ccc(Cl)cc1 [Pyrimethamine] + CCC(C)CCCC(=O)N[C@@H](CCN)C(=O)N[C@H](C(=O)N[C@@H](CCN)C(=O)N[C@H]1CCNC(=O)[C@H]([C@@H](C)O)NC(=O)[C@H](CCN)NC(=O)[C@H](CCN)NC(=O)[C@H](CC(C)C)NC(=O)[C@@H](CC(C)C)NC(=O)[C@H](CCN)NC1=O)[C@@H](C)O [colistin] | inactive: 1.21 |
| CC1=C(C(=O)O)N2C(=O)[C@@H](NC(=O)[C@H](N)c3ccc(O)cc3)[C@H]2SC1 [Cefadroxil] + CCC(C)CCCC(=O)N[C@@H](CCN)C(=O)N[C@H](C(=O)N[C@@H](CCN)C(=O)N[C@H]1CCNC(=O)[C@H]([C@@H](C)O)NC(=O)[C@H](CCN)NC(=O)[C@H](CCN)NC(=O)[C@H](CC(C)C)NC(=O)[C@@H](CC(C)C)NC(=O)[C@H](CCN)NC1=O)[C@@H](C)O [colistin] | inactive: 0.958 |
| C[C@@H]1CN(c2c(F)c(N)c3c(=O)c(C(=O)O)cn(C4CC4)c3c2F)C[C@H](C)N1 [Sparfloxacin] + CCC(C)CCCC(=O)N[C@@H](CCN)C(=O)N[C@H](C(=O)N[C@@H](CCN)C(=O)N[C@H]1CCNC(=O)[C@H]([C@@H](C)O)NC(=O)[C@H](CCN)NC(=O)[C@H](CCN)NC(=O)[C@H](CC(C)C)NC(=O)[C@@H](CC(C)C)NC(=O)[C@H](CCN)NC1=O)[C@@H](C)O [colistin] | inactive: 0.687 |
| C[C@H]1CN(C[C@H](Cc2ccccc2)C(=O)NCC(=O)O)CC[C@@]1(C)c1cccc(O)c1 [Alvimopan] + CCC(C)CCCC(=O)N[C@@H](CCN)C(=O)N[C@H](C(=O)N[C@@H](CCN)C(=O)N[C@H]1CCNC(=O)[C@H]([C@@H](C)O)NC(=O)[C@H](CCN)NC(=O)[C@H](CCN)NC(=O)[C@H](CC(C)C)NC(=O)[C@@H](CC(C)C)NC(=O)[C@H](CCN)NC1=O)[C@@H](C)O [colistin] | inactive: 1.14 |
| C[C@H](CCC(=O)O)[C@H]1CC[C@H]2[C@@H]3CC[C@@H]4C[C@H](O)CC[C@]4(C)[C@H]3C[C@H](O)[C@]12C [Deoxycholic acid] + CCC(C)CCCC(=O)N[C@@H](CCN)C(=O)N[C@H](C(=O)N[C@@H](CCN)C(=O)N[C@H]1CCNC(=O)[C@H]([C@@H](C)O)NC(=O)[C@H](CCN)NC(=O)[C@H](CCN)NC(=O)[C@H](CC(C)C)NC(=O)[C@@H](CC(C)C)NC(=O)[C@H](CCN)NC1=O)[C@@H](C)O [colistin] | inactive: 1.19 |

An excerpt of these results, as tab-separated lines:
SMILES	OD600
CCc1nc(N)nc(N)c1-c1ccc(Cl)cc1 [Pyrimethamine] + CCC(C)CCCC(=O)N[C@@H](CCN)C(=O)N[C@H](C(=O)N[C@@H](CCN)C(=O)N[C@H]1CCNC(=O)[C@H]([C@@H](C)O)NC(=O)[C@H](CCN)NC(=O)[C@H](CCN)NC(=O)[C@H](CC(C)C)NC(=O)[C@@H](CC(C)C)NC(=O)[C@H](CCN)NC1=O)[C@@H](C)O [colistin]	inactive: 1.21
CC1=C(C(=O)O)N2C(=O)[C@@H](NC(=O)[C@H](N)c3ccc(O)cc3)[C@H]2SC1 [Cefadroxil] + CCC(C)CCCC(=O)N[C@@H](CCN)C(=O)N[C@H](C(=O)N[C@@H](CCN)C(=O)N[C@H]1CCNC(=O)[C@H]([C@@H](C)O)NC(=O)[C@H](CCN)NC(=O)[C@H](CCN)NC(=O)[C@H](CC(C)C)NC(=O)[C@@H](CC(C)C)NC(=O)[C@H](CCN)NC1=O)[C@@H](C)O [colistin]	inactive: 0.958
